According to the supplement of paper PMC8728848:
Some of the results follow.

Experiments:
Assay in all cases: glycan array binding signal (z-score within array); higher = stronger binding
Settings in all cases: glycan notation: IUPAC condensed, linker removed
[1] = molecular target: GlcNAc(a1-3)Gal(b1-4)GlcNAc
Procedure, shortened: (§1)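 Arrays were curated from the Consortium for Functional Glycomics database, 3228 in total, and kept only where the protein sequence was available. Binding is expressed as a within-array Z-score. This score was averaged across arrays of the same protein sequence at different concentrations or buffers and across linkers, and negative values can be read as non-binding.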

[2] = molecular target: GlcNAc(a1-4)Gal(b1-3)GlcNAc
Procedure, shortened: as §1

[3] = molecular target: GlcNAc(a1-4)Gal(b1-4)GalNAc
Procedure, shortened: as §1

[4] = molecular target: GlcNAc(a1-4)Gal(b1-4)GlcNAc
Procedure, shortened: as §1

[5] = molecular target: GlcNAc(a1-4)Gal(b1-4)GlcNAc(b1-3)Gal(b1-4)Glc
Procedure, shortened: as §1

[6] = molecular target: GlcNAc(a1-4)Gal(b1-4)GlcNAc(b1-3)Gal(b1-4)GlcNAc
Procedure, shortened: as §1

[7] = molecular target: GlcNAc(a1-4)Gal(b1-4)GlcNAc(b1-3)Gal(b1-4)GlcNAc(b1-3)Gal(b1-4)GlcNAc
Procedure, shortened: as §1

[8] = molecular target: GlcNAc(a1-4)Gal(b1-4)GlcNAc(b1-3)Gal(b1-4)[Fuc(a1-3)]GlcNAc(b1-3)Gal(b1-4)[Fuc(a1-3)]GlcNAc
Procedure, shortened: as §1

[9] = molecular target: GlcNAc(a1-6)Gal(b1-4)GlcNAc
Procedure, shortened: as §1

[10] = molecular target: GlcNAc(b1-2)Gal(b1-3)GalNAc
Procedure, shortened: as §1

[11] = molecular target: GlcNAc(b1-2)Man(a1-3)[GlcNAc(b1-2)Man(a1-6)]Man(b1-4)GlcNAc(b1-4)GlcNAc
Procedure, shortened: as §1

[12] = molecular target: GlcNAc(b1-2)Man(a1-3)[GlcNAc(b1-2)Man(a1-6)]Man(b1-4)GlcNAc(b1-4)[Fuc(a1-6)]GlcNAc
Procedure, shortened: as §1

[13] = molecular target: GlcNAc(b1-2)Man(a1-3)[GlcNAc(b1-4)][GlcNAc(b1-2)Man(a1-6)]Man(b1-4)GlcNAc(b1-4)GlcNAc
Procedure, shortened: as §1

[14] = molecular target: GlcNAc(b1-2)Man(a1-3)[GlcNAc(b1-4)][GlcNAc(b1-2)Man(a1-6)]Man(b1-4)GlcNAc(b1-4)[Fuc(a1-6)]GlcNAc
Procedure, shortened: as §1

[15] = molecular target: GlcNAc(b1-2)[GlcNAc(b1-4)]Man(a1-3)[GlcNAc(b1-2)Man(a1-6)]Man(b1-4)GlcNAc(b1-4)GlcNAc
Procedure, shortened: as §1

[16] = molecular target: GlcNAc(b1-2)[GlcNAc(b1-4)]Man(a1-3)[GlcNAc(b1-4)][GlcNAc(b1-2)Man(a1-6)]Man(b1-4)GlcNAc(b1-4)GlcNAc
Procedure, shortened: as §1

[17] = molecular target: GlcNAc(b1-2)[GlcNAc(b1-4)]Man(a1-3)[GlcNAc(b1-4)][GlcNAc(b1-2)[GlcNAc(b1-6)]Man(a1-6)]Man(b1-4)GlcNAc(b1-4)GlcNAc
Procedure, shortened: as §1

[18] = molecular target: GlcNAc(b1-2)[GlcNAc(b1-4)]Man(a1-3)[GlcNAc(b1-4)][GlcNAc(b1-2)[GlcNAc(b1-6)]Man(a1-6)]Man(b1-4)GlcNAc(b1-4)[Fuc(a1-6)]GlcNAc
Procedure, shortened: as §1

[19] = molecular target: GlcNAc(b1-2)[GlcNAc(b1-6)]Man(a1-6)[GlcNAc(b1-2)Man(a1-3)]Man(b1-4)GlcNAc(b1-4)GlcNAc
Procedure, shortened: as §1

[20] = molecular target: GlcNAc(b1-2)[GlcNAc(b1-6)]Man(a1-6)[GlcNAc(b1-2)Man(a1-3)]Man(b1-4)GlcNAc(b1-4)[Fuc(a1-6)]GlcNAc
Procedure, shortened: as §1

[21] = molecular target: GlcNAc(b1-2)[GlcNAc(b1-6)]Man(a1-6)[GlcNAc(b1-4)][GlcNAc(b1-2)Man(a1-3)]Man(b1-4)GlcNAc(b1-4)GlcNAc
Procedure, shortened: as §1

GlcNAc(b1-3)Fuc = molecular target: GlcNAc(b1-3)Fuc
Procedure, shortened: as §1

GlcNAc(b1-3)Gal = molecular target: GlcNAc(b1-3)Gal
Procedure, shortened: as §1

[22] = molecular target: GlcNAc(b1-3)Gal(b1-3)GalNAc
Procedure, shortened: as §1

GlcNAc(b1-3)Gal(b1-4)Glc = molecular target: GlcNAc(b1-3)Gal(b1-4)Glc
Procedure, shortened: as §1

[23] = molecular target: GlcNAc(b1-3)Gal(b1-4)GlcNAc
Procedure, shortened: as §1

[24] = molecular target: GlcNAc(b1-3)Gal(b1-4)GlcNAc(b1-2)Man(a1-3)[GlcNAc(b1-3)Gal(b1-4)GlcNAc(b1-2)Man(a1-6)]Man(b1-4)GlcNAc(b1-4)GlcNAc
Procedure, shortened: as §1

[25] = molecular target: GlcNAc(b1-3)Gal(b1-4)GlcNAc(b1-2)Man(a1-3)[GlcNAc(b1-3)Gal(b1-4)GlcNAc(b1-2)Man(a1-6)]Man(b1-4)GlcNAc(b1-4)[Fuc(a1-6)]GlcNAc
Procedure, shortened: as §1

[26] = molecular target: GlcNAc(b1-3)Gal(b1-4)GlcNAc(b1-2)[GlcNAc(b1-3)Gal(b1-4)GlcNAc(b1-6)]Man(a1-6)[GlcNAc(b1-3)Gal(b1-4)GlcNAc(b1-2)Man(a1-3)]Man(b1-4)GlcNAc(b1-4)GlcNAc
Procedure, shortened: as §1

[27] = molecular target: GlcNAc(b1-3)Gal(b1-4)GlcNAc(b1-3)Gal(b1-4)GlcNAc
Procedure, shortened: as §1

[28] = molecular target: GlcNAc(b1-3)Gal(b1-4)GlcNAc(b1-3)Gal(b1-4)GlcNAc(b1-2)Man(a1-3)[GlcNAc(b1-3)Gal(b1-4)GlcNAc(b1-3)Gal(b1-4)GlcNAc(b1-2)Man(a1-6)]Man(b1-4)GlcNAc(b1-4)GlcNAc
Procedure, shortened: as §1

[29] = molecular target: GlcNAc(b1-3)Gal(b1-4)GlcNAc(b1-3)Gal(b1-4)GlcNAc(b1-2)Man(a1-3)[GlcNAc(b1-3)Gal(b1-4)GlcNAc(b1-3)Gal(b1-4)GlcNAc(b1-2)Man(a1-6)]Man(b1-4)GlcNAc(b1-4)[Fuc(a1-6)]GlcNAc
Procedure, shortened: as §1

[30] = molecular target: GlcNAc(b1-3)Gal(b1-4)GlcNAc(b1-3)Gal(b1-4)GlcNAc(b1-2)[GlcNAc(b1-3)Gal(b1-4)GlcNAc(b1-3)Gal(b1-4)GlcNAc(b1-6)]Man(a1-6)[GlcNAc(b1-3)Gal(b1-4)GlcNAc(b1-3)Gal(b1-4)GlcNAc(b1-2)Man(a1-3)]Man(b1-4)GlcNAc(b1-4)[Fuc(a1-6)]GlcNAc
Procedure, shortened: as §1

[31] = molecular target: GlcNAc(b1-3)Gal(b1-4)GlcNAc(b1-3)Gal(b1-4)GlcNAc(b1-3)Gal(b1-4)GlcNAc(b1-2)Man(a1-3)[GlcNAc(b1-3)Gal(b1-4)GlcNAc(b1-3)Gal(b1-4)GlcNAc(b1-3)Gal(b1-4)GlcNAc(b1-2)Man(a1-6)]Man(b1-4)GlcNAc(b1-4)GlcNAc
Procedure, shortened: as §1

[32] = molecular target: GlcNAc(b1-3)Gal(b1-4)GlcNAc(b1-3)Gal(b1-4)GlcNAc(b1-3)Gal(b1-4)GlcNAc(b1-2)Man(a1-3)[GlcNAc(b1-3)Gal(b1-4)GlcNAc(b1-3)Gal(b1-4)GlcNAc(b1-3)Gal(b1-4)GlcNAc(b1-2)Man(a1-6)]Man(b1-4)GlcNAc(b1-4)[Fuc(a1-6)]GlcNAc
Procedure, shortened: as §1

[33] = molecular target: GlcNAc(b1-3)Gal(b1-4)GlcNAc(b1-3)Gal(b1-4)GlcNAc(b1-3)Gal(b1-4)GlcNAc(b1-2)[GlcNAc(b1-3)Gal(b1-4)GlcNAc(b1-3)Gal(b1-4)GlcNAc(b1-3)Gal(b1-4)GlcNAc(b1-6)]Man(a1-6)[GlcNAc(b1-3)Gal(b1-4)GlcNAc(b1-3)Gal(b1-4)GlcNAc(b1-3)Gal(b1-4)GlcNAc(b1-2)Man(a1-3)]Man(b1-4)GlcNAc(b1-4)[Fuc(a1-6)]GlcNAc
Procedure, shortened: as §1

[34] = molecular target: GlcNAc(b1-3)Gal(b1-4)GlcNAc(b1-3)Gal(b1-4)GlcNAc(b1-3)Gal(b1-4)GlcNAc(b1-3)Gal(b1-4)GlcNAc(b1-2)Man(a1-3)[GlcNAc(b1-3)Gal(b1-4)GlcNAc(b1-3)Gal(b1-4)GlcNAc(b1-3)Gal(b1-4)GlcNAc(b1-3)Gal(b1-4)GlcNAc(b1-2)Man(a1-6)]Man(b1-4)GlcNAc(b1-4)GlcNAc
Procedure, shortened: as §1

[35] = molecular target: GlcNAc(b1-3)Gal(b1-4)GlcNAc(b1-3)Gal(b1-4)GlcNAc(b1-3)Gal(b1-4)GlcNAc(b1-3)Gal(b1-4)GlcNAc(b1-2)Man(a1-3)[GlcNAc(b1-3)Gal(b1-4)GlcNAc(b1-3)Gal(b1-4)GlcNAc(b1-3)Gal(b1-4)GlcNAc(b1-3)Gal(b1-4)GlcNAc(b1-2)Man(a1-6)]Man(b1-4)GlcNAc(b1-4)[Fuc(a1-6)]GlcNAc
Procedure, shortened: as §1

B1: SP15308C-bot-338-23-338 (Bacteroides ovatus) (protein)
chain: DEWTDEQFKQLISFKTQPGGWGVTDVHVRYANSAKYTYNLPVLVSGSTDNTDDRLVSFSLRDDTLDILNFEKFGNRPELYFRELPQKYYSFPKELTIPAGQSHALLPIEFSLDGLDDSQKWALPLKVCEDANGTYAVNPRKYYRTAVLRPILFNEFSGRFSGSSLLGTMAGESDIKFSSTEIKLNVVTDSIVFFYAGQRTEDYEDRINYKVFLQFTGDKVDSKKDLYKMKIWAENEKLKFNSYSTPTYKVSSEMDATKTYLKHTYIVISDIDFDFVDYTSVPNYEIEYNMKGGLSVSRDLDTRKPDEDQGSDSKWW
- glycan array binding signal (z-score) [1]: -0.287
- glycan array binding signal (z-score) [2]: 0.674
- glycan array binding signal (z-score) [3]: 0.249
- glycan array binding signal (z-score) [4]: -0.574
- glycan array binding signal (z-score) [5]: -0.788
- glycan array binding signal (z-score) [6]: -0.205
- glycan array binding signal (z-score) [7]: -0.311
- glycan array binding signal (z-score) [8]: 1.81
- glycan array binding signal (z-score) [9]: 0.512
- glycan array binding signal (z-score) [10]: -0.005
- glycan array binding signal (z-score) [11]: -0.466
- glycan array binding signal (z-score) [12]: 0.155
- glycan array binding signal (z-score) [13]: -0.307
- glycan array binding signal (z-score) [14]: -0.34
- glycan array binding signal (z-score) [15]: -0.931
- glycan array binding signal (z-score) [16]: -0.593
- glycan array binding signal (z-score) [17]: 0.066
- glycan array binding signal (z-score) [18]: -0.818
- glycan array binding signal (z-score) [19]: -0.51
- glycan array binding signal (z-score) [20]: 1.06
- glycan array binding signal (z-score) [21]: -0.397
- glycan array binding signal (z-score) (GlcNAc(b1-3)Fuc): -0.187
- glycan array binding signal (z-score) (GlcNAc(b1-3)Gal): -0.756
- glycan array binding signal (z-score) [22]: 0.097
- glycan array binding signal (z-score) (GlcNAc(b1-3)Gal(b1-4)Glc): -0.72
- glycan array binding signal (z-score) [23]: -0.065
- glycan array binding signal (z-score) [24]: -0.303
- glycan array binding signal (z-score) [25]: 0.19
- glycan array binding signal (z-score) [26]: 0.124
- glycan array binding signal (z-score) [27]: -0.336
- glycan array binding signal (z-score) [28]: 2.87
- glycan array binding signal (z-score) [29]: -0.126
- glycan array binding signal (z-score) [30]: 0.772
- glycan array binding signal (z-score) [31]: 0.104
- glycan array binding signal (z-score) [32]: 0.13
- glycan array binding signal (z-score) [33]: 1.82
- glycan array binding signal (z-score) [34]: 0.047
- glycan array binding signal (z-score) [35]: 0.146
